Assay results published in patent publication US20120316113A1, “FGF BASED FIBRIN BINDING PEPTIDES” (Baxter Healthcare S.A., priority 2011, published 2012).
Results are given in words; binding and its absence hold for the method and conditions named. Some results given as binding are weak or reduced against the parent protein; the word gives no strength. Sequences can lack the tags named with a protein.

Sequences of proteins named here, by UniProt entry; tags and fusion partners are left off. A change or cut given only in a name is not applied to a line headed by its entry.
UniProt P02671: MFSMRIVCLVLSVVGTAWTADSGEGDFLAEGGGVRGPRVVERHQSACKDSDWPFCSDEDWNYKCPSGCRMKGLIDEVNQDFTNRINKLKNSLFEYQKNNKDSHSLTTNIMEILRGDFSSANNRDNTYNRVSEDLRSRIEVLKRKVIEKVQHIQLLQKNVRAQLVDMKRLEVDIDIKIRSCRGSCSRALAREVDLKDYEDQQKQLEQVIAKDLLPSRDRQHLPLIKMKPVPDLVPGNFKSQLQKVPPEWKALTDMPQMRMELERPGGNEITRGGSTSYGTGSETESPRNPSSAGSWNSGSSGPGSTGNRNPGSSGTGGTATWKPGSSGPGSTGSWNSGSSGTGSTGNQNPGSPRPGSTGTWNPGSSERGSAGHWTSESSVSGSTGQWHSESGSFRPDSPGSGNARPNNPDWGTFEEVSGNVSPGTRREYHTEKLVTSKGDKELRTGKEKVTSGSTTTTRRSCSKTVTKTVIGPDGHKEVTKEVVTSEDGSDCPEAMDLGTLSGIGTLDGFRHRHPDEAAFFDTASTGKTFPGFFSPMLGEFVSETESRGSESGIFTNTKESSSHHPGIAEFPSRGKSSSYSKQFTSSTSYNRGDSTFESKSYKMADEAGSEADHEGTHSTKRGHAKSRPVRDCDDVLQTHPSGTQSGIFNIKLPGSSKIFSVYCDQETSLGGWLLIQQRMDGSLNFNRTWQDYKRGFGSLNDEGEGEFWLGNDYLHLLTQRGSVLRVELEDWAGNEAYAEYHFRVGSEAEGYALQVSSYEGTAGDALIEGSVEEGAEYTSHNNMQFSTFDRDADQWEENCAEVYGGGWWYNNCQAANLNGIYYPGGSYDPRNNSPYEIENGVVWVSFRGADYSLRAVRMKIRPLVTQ

B1: hFGF-2 peptide pep2 (peptide)
peptide: VCANRYLAMKEDGRLLASKCVTDECFFFERLESNNYNTYRSRHHHHHH
B2: hFGF-2 peptide pep3 (37 aa), synthetic, with C-terminal 5x HIS-tag (peptide)
peptide: EDGRLLASKCVTDECFFFERLESNNYNTYRSRHHHHH
B3: hFGF-2 peptide pep5 (20 aa), synthetic, with C-terminal 5x HIS-tag (peptide)
peptide: FERLESNNYNTYRSRHHHHH
B4: hFGF-2 peptide pep1 (peptide)
peptide: EERGVVSIKGVCANRYLAMKEDGRLLASKCVTDECFFFERLESNNYNTYRSRHHHHHH
B5: hFGF-2 peptide pep4 (29 aa), synthetic, with C-terminal 5x HIS-tag (peptide)
peptide: KCVTDECFFFERLESNNYNTYRSRHHHHH

These binders were tested against fibrinogen (Tisseel, Baxter AG, Vienna) (UniProt P02671) (assay: SPR, fibrinogen amine-coupled to a gold chip).
B1 was tested, and the binding was “binds”. B2 was tested, and the binding was “binds”. In the case of B3, the binding is reported as “binds”. With B4 the binding was “binds”. For B5, the binding was “binds”.

The binders below were run against fibrinogen (Tisseel, Baxter AG, Vienna) (UniProt P02671) (assay: ELISA on coated fibrinogen, anti-His6-peroxidase detection).
B1 was tested, and the binding was “binds”. With B2 the binding was “binds”. For B3, the binding was “binds”. For B4, the binding was “binds”. B5 was tested, and the binding was “binds”.

Each binder was assayed against fibrinogen (Tisseel, Baxter AG, Vienna) (UniProt P02671) (assay: ELISA on coated fibrinogen).
For B1, the binding was “binds”. In the case of B2, the binding is reported as “binds”. In the case of B3, the binding is reported as “binds”. In the case of B4, the binding is reported as “binds”.

What follows are binders tested against fibrin (plate-coated Tisseel fibrinogen treated with thrombin) (UniProt P02671) (assay: ELISA on fibrin (coated fibrinogen treated with thrombin)).
B1 was tested, and the binding was “binds”. With B2 the binding was “binds”. For B3, the binding was “binds”. B4 was tested, and the binding was “binds”.

These binders were tested against fibrinogen (Tisseel, Baxter AG, Vienna) (UniProt P02671) (assay: SPR, fibrinogen amine-coupled to a gold chip; fitted association curves).
In the case of B5, the binding is reported as “binds”.
